PubChem BioAssay AID2685 (National Center for Advancing Translational Sciences (NCATS), 2010)
This is one part of the list. These are further read-outs of the screen, such as a control signal, another cell line or another target. No call is given for them. Most of these compounds were active or inconclusive in the main read-out, so they are no random draw. Potencies come from curve fits of mixed quality, noted in brackets.

Test: qHTS Assay for Lipid Storage Modulators in Drosophila S3 Cells;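 for cell number change: cells counted by Cell Tracker Red CMTPX staining in the red channel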
Conditions: BODIPY lipid droplet fluorescence, 18-24 h; for cell number change: measured here: cell count max response, cells fed with added oleic acid
Method in brief: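 Laser-scanning cytometry quantifies lipid droplet accumulation (500–530 nm total intensity; droplet/cell object ratio) in oleic acid-fed (400 uM added) Drosophila S3 cells treated with a concentration series. 20 uM Triacsin C defined 100% inhibition.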

[1] = measured here: lipid fluorescence (Fed channel) AC50, cells fed with added oleic acid
[2] = measured here: cell number channel AC50, cells fed with added oleic acid

| SMILES | cell number change [%] | AC50 [1] | AC50 [2] |
| --- | --- | --- | --- |
| Cc1ccc[n+](C(C)C(=O)c2ccc(-c3ccccc3)cc2)c1 (stereo not given) | -27.5 | 29.1 µM [falling, single point] |  |
| COc1ccc(NC(=O)N2CCc3ccccc3C2)cc1OC | 43.3 | 29.1 µM [rising, single point] | 5.17 µM [rising, full curve] |
| Cc1cc(N/N=C/c2ccc(O)cc2O)nc(-n2nc(C)cc2C)n1 | -44.6 | 2.06 µM [rising, partial curve] | 29.1 µM [falling, single point] |
| Cn1c2ccccc2c2cnn(CC(=O)O)c(=O)c21 | 0.643 | 0.00461 µM [falling, full curve, poor fit] |  |
| CN1C(=O)/C(=C/c2ccc(C(=O)Nc3ccc(O)cc3C(=O)O)cc2)SC1=S | 19.1 | 6.51 µM [falling, single point] | 6.51 µM [falling, single point] |
| Cc1noc(C)c1CSCC(=O)Nc1ccc(S(=O)(=O)C(F)F)cc1 | 2.62 | 18.4 µM [falling, single point] |  |
| COc1ccc(C2NC(=S)N(c3ccccc3)C(C)=C2C(=O)Nc2ccccc2)cc1 (stereo not given) | 0.0314 | 29.1 µM [rising, single point] |  |
| CCN(CC(=O)Nc1ccc(OC)cc1)C(=O)c1oc2c(Cl)cccc2c1C | 15.5 | 9.2 µM [rising, partial curve, poor fit] |  |
| COC(=O)CN(c1ccccc1)S(=O)(=O)c1ccccc1 | 32.1 | 29.1 µM [rising, single point] | 23.1 µM [rising, single point] |
| CC1(c2ccccc2)NC(=O)N(CC(=O)N(CC(=O)Nc2ccccc2C(F)(F)F)Cc2ccco2)C1=O (stereo not given) | -7.8 | 29.1 µM [rising, single point] | 1.3 µM [falling, partial curve] |
| Nc1ccccc1C#CC(=O)c1ccccc1 | -57.6 | 16.4 µM [falling, partial curve] | 29.1 µM [falling, single point] |
| O=C(CCC(=O)Nc1ccccc1Cl)NNC(=O)Nc1cccc([N+](=O)[O-])c1 | 11.9 | 0.116 µM [rising, full curve, poor fit] |  |
| CNc1snc(C)c1C(=O)OC(C)C(=O)NCc1ccccc1 (stereo not given) | -22.9 | 5.8 µM [falling, single point] |  |
| CCc1nc(C)c(C(=O)N2CCCC(C(=O)Nc3cccc(-c4cccc(C)c4)c3)C2)o1 (stereo not given) | -39 | 4.11 µM [falling, single point] | 0.366 µM [falling, full curve] |

Three compounds out of the list, arranged by count of non-hydrogen atoms, ascending:

| SMILES | cell number change [%] | AC50 [1] | AC50 [2] |
| --- | --- | --- | --- |
| Cn1c2ccccc2c2cnn(CC(=O)O)c(=O)c21 | 0.643 | 0.00461 µM [falling, full curve, poor fit] |  |
| CNc1snc(C)c1C(=O)OC(C)C(=O)NCc1ccccc1 (stereo not given) | -22.9 | 5.8 µM [falling, single point] |  |
| Cc1noc(C)c1CSCC(=O)Nc1ccc(S(=O)(=O)C(F)F)cc1 | 2.62 | 18.4 µM [falling, single point] |  |
